No constants are given. Whether binding was seen depends on the method and setting. In cells and extracts the contact can be indirect. Some binding calls cover weakened binding; strength is not graded here.

Assay [1] deals with T1, inwardly rectifying K+ channel subtype Kir4.1 (mouse (endogenous in brain tissue)) (UniProt Q9JM63).
T1 sequence: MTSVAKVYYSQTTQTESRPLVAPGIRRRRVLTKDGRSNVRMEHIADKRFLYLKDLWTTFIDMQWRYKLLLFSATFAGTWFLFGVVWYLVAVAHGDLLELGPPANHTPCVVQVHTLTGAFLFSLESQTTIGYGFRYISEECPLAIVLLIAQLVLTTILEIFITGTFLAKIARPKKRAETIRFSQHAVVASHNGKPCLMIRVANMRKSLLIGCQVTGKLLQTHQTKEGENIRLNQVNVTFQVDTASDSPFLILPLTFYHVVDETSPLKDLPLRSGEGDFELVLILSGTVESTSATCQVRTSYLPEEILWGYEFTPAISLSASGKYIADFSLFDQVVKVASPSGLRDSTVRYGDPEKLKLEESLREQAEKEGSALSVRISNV
Put plainly: co-IP; extracts from isolated mouse brain tissue (WT; also contralateral and ipsilateral tissue of tMCAO mice), precleared with Protein G-agarose, 4 ug antibody or control normal IgG with protein G-agarose beads overnight at 4 °C, Pierce Classic IP kit, Western blot; both directions (IP of OSP and IP of Kir4.1).

Assay [2] concerns the target T2, oligodendrocyte-specific protein (OSP/Claudin-11) (mouse (endogenous in brain tissue)) (UniProt Q60771).
T2 sequence: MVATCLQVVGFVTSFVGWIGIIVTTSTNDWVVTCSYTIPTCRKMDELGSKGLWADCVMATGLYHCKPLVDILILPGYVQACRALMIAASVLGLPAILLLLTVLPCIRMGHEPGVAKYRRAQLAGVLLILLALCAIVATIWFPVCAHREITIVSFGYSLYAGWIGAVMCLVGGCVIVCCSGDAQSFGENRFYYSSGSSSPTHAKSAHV
Described as above.

B1: oligodendrocyte-specific protein (OSP/Claudin-11) (protein, UniProt Q60771 1-207)
chain: T2 sequence
B1: the binding result in assay [1] is “binds”.

B2: inwardly rectifying K+ channel subtype Kir4.1 (protein, UniProt Q9JM63 1-379)
chain: T1 sequence
For B2, the binding entry in assay [2] is “binds”.

The values are drawn from article PMC6123808.
